## Percent effect of library compounds

The chains behind the UniProt entries cited, without tags or fusion partners. Residues count along the entry.
UniProt A4I591, 1-473: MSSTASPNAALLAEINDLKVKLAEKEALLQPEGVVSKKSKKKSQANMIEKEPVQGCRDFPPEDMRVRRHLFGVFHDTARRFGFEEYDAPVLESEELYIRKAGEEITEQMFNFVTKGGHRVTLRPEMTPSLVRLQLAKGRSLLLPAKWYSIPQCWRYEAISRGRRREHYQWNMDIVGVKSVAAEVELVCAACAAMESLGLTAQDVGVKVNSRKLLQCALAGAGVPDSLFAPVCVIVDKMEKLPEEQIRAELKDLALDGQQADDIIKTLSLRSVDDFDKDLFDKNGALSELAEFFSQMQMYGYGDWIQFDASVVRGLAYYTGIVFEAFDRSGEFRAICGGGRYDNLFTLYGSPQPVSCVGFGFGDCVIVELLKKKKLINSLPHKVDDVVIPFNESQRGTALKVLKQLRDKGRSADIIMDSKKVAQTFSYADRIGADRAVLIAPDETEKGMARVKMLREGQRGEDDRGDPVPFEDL
UniProt I6X8D2, whole entry: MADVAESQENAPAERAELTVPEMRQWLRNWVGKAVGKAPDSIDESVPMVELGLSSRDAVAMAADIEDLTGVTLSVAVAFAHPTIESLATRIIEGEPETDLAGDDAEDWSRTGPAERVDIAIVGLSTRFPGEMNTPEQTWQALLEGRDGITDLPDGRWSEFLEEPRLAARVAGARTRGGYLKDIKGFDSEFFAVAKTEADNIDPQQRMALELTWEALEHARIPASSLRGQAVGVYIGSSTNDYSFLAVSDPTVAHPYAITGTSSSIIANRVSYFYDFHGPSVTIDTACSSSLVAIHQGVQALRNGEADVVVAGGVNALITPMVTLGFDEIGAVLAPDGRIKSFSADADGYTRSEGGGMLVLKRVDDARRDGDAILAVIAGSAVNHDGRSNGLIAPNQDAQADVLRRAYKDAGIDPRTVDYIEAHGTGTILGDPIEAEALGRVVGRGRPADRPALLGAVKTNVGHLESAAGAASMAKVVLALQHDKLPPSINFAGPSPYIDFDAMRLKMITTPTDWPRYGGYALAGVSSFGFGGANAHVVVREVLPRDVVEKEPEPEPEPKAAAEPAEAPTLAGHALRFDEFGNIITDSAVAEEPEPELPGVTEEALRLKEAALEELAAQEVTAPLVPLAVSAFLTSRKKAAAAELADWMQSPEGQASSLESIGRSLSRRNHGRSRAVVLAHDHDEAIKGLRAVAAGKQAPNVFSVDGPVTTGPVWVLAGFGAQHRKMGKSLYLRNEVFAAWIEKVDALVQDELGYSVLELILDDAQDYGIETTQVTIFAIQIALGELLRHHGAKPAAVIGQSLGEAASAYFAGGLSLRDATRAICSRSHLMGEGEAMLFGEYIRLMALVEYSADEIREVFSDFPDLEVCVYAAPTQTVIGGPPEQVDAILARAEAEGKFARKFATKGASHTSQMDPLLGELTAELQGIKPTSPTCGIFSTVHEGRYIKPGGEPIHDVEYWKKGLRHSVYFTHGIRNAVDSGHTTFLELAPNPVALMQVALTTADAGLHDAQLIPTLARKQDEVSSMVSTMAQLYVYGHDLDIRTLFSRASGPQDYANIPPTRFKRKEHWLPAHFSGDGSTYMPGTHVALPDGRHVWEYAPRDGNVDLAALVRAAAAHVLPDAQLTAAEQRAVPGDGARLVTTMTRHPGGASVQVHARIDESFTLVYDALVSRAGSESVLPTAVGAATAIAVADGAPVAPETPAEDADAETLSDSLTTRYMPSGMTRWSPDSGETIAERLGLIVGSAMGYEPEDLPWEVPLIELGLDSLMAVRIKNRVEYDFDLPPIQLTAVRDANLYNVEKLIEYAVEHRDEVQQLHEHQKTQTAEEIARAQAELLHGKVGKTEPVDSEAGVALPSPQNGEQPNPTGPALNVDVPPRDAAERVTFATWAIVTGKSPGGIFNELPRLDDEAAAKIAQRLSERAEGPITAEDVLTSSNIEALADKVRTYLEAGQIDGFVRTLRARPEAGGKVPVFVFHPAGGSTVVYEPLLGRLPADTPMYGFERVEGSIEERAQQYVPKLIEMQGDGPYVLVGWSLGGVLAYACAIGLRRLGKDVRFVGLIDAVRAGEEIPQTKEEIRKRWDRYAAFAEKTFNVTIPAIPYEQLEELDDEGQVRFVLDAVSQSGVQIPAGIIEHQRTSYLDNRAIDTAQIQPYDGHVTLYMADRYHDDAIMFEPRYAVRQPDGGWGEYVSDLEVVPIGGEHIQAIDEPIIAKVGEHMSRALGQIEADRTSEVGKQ

Each number is a percent effect as filed.
How 0% and 100% were set is not recorded. Most values in the screen are low, and negative values occur.
Compounds were drawn at random from those tested, without regard to their results.

Leishmania in macrophages: 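Cell assay of Leishmania donovani living inside macrophages; the read-out is not stated. Tested at 30 µM. The record gives no direction; compounds that gave an IC50 in retests scored well above the rest, so higher reads as stronger inhibition. About 69,000 compounds were tested under these conditions; 1.5% (about 1,000) showed 50% or more at least once.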
LiHisRS: 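Enzyme assay of histidyl-tRNA synthetase; the read-out is not stated. Target: Histidine-tRNA ligase, Leishmania infantum (UniProt A4I591). Concentration: 30 µM. The record gives no direction; compounds that gave an IC50 in retests scored well above the rest, so higher reads as stronger inhibition. The assay is labelled LdHisRS but filed under L. infantum. About 69,000 compounds were tested under these conditions; 0.6% (about 410) showed 50% or more at least once.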
Pks13 thioesterase: 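Polyketide synthase Pks13, Mycobacterium tuberculosis (UniProt I6X8D2). Enzyme assay of the thioesterase domain of polyketide synthase 13; the read-out is not stated. Tested at 30 µM. The record gives no direction; the compounds picked for IC50 retests had high values, so higher reads as stronger inhibition. Of about 67,000 compounds tested this way, about 300 (0.46%) reached 50% or more in at least one test.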

{"smiles": "[H][C@@]12CN(S(=O)(=O)c3ccccc3)C[C@]1([H])OCC(=O)N2CC1CCCCC1", "Leishmania in macrophages": 11.3}
{"smiles": "O=C(CCC1CCN(C(=O)c2csnn2)CC1)NCc1cccc(Cl)c1", "Leishmania in macrophages": 1.684, "LiHisRS": -2.74, "Pks13 thioesterase": -10.82}
{"smiles": "C=C1C(C)(C)[C@H]2CC[C@]1(C(=O)N1CCC(Cn3cc(CO)nn3)CC1)C2", "LiHisRS": 9.524, "Pks13 thioesterase": -3.106}
{"smiles": "[H][C@@]12CCC(=O)N(CCc3c[nH]cn3)[C@]1([H])CCN(Cc1c(C)n[nH]c1C)C2", "Leishmania in macrophages": 25.59}
{"smiles": "Cn1cccc1C(=O)N1CC[C@@]2(O)CCN(S(C)(=O)=O)C[C@H]2C1", "LiHisRS": 11.67, "Pks13 thioesterase": -1.441}
{"smiles": "O=C(NCCc1c[nH]cn1)c1n[nH]c2c1CCC2", "Leishmania in macrophages": 3.926, "LiHisRS": 18.68, "Pks13 thioesterase": -14.45}
{"smiles": "CN1C(Cn2cccn2)C[C@@H]2CN(Cc3cccnc3)CC[C@@H]21", "stereo": "stereo partly specified", "LiHisRS": 13.7, "Pks13 thioesterase": -7.826}
{"smiles": "COCC1CN(Cc2ccc(C)o2)Cc2nnn(C)c21", "stereo": "stereo unspecified", "LiHisRS": 28.77, "Pks13 thioesterase": -1.318}
{"smiles": "Cc1cccc2c1CCN(c1cc(N3CCCC3CO)ncn1)C2", "stereo": "stereo unspecified", "Leishmania in macrophages": -13.5, "LiHisRS": 29.75, "Pks13 thioesterase": -17.35}
{"smiles": "Fc1cccc(-c2nc(CN3CCCC3Cn3cccn3)co2)c1", "stereo": "stereo unspecified", "Leishmania in macrophages": -37.17, "LiHisRS": 3.571, "Pks13 thioesterase": -23.85}
{"smiles": "O=C(NCC1CCOC1)c1csc(-c2ccc(F)cc2)n1", "stereo": "stereo unspecified", "Leishmania in macrophages": 23.94, "LiHisRS": 13.91, "Pks13 thioesterase": 0.9331}
{"smiles": "COc1ccc(OCC(=O)NS(=O)(=O)c2cc(F)ccc2F)cc1", "Leishmania in macrophages": -0.7524, "LiHisRS": 1.923, "Pks13 thioesterase": -18.67}
{"smiles": "c1ccc(OCc2nnc3n2CCN(CC2CC2)C3)nc1", "LiHisRS": 9.091, "Pks13 thioesterase": -2.339}
{"smiles": "Cc1ccc(N2CC[C@H]3O[C@@H](C(=O)N4CCCO4)CC[C@H]32)nn1", "LiHisRS": 13.21, "Pks13 thioesterase": -13.72}
{"smiles": "CCN1CCc2cc(-c3cncn3CC(=O)NC(C)(C)C)ccc21", "LiHisRS": 35.17, "Pks13 thioesterase": -16.43}
{"smiles": "CN(Cc1cccnc1)C[C@H]1OC[C@@H]2CCN(c3ncccn3)C[C@@H]21", "LiHisRS": 18, "Pks13 thioesterase": -16.06}
{"smiles": "c1ccc(SCCN2CCCC(Cn3ccnc3)C2)cc1", "stereo": "stereo unspecified", "Leishmania in macrophages": 28.36, "LiHisRS": 11.57, "Pks13 thioesterase": -31.32}
{"smiles": "CN(C)c1cc2c(nn1)CCN(C(=O)C1CCCc3ccccc31)C2", "stereo": "stereo unspecified", "Leishmania in macrophages": 12.73, "LiHisRS": 10.91, "Pks13 thioesterase": -62.83}
{"smiles": "O=C(c1ncccn1)N1CCC[C@]2(C[C@@H](OCC3CC3)CO2)C1", "Leishmania in macrophages": 25.94, "LiHisRS": 16, "Pks13 thioesterase": -1.764}
{"smiles": "Cc1cnc(N2CCCC(O)C2)nc1-c1ccnn1C", "stereo": "stereo unspecified", "Leishmania in macrophages": -25.91, "LiHisRS": -6.667, "Pks13 thioesterase": 5.814}

2 of the entries, repeated:

SMILES	Leishmania in macrophages	LiHisRS	Pks13 thioesterase
O=C(NCC1CCOC1)c1csc(-c2ccc(F)cc2)n1 (stereo unspecified)	23.94	13.91	0.9331
Cc1cccc2c1CCN(c1cc(N3CCCC3CO)ncn1)C2 (stereo unspecified)	-13.5	29.75	-17.35

From ChEMBL document CHEMBL3988442, “University of Dundee, Small-Polar-MMV Screening Library” (2021).